Assay results published in paper PMC4838387, “PolDIP2 interacts with human PrimPol and enhances its DNA polymerase activities”.

Target: T1, PrimPol24-354 (AEP catalytic domain) (human) (UniProt Q96LW4)
T1 sequence (looked up): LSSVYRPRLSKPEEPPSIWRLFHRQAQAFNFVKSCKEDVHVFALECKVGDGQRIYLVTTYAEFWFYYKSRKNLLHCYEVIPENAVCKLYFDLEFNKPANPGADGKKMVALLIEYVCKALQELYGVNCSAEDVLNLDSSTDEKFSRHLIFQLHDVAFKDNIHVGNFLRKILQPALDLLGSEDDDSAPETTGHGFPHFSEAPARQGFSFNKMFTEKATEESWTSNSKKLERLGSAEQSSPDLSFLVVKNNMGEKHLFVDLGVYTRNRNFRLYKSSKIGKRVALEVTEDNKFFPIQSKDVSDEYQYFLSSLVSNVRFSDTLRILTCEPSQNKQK
Experiment: EMSA
Details: 200 nM PrimPol24-354 with PolDIP2 51-368: DNA binding not stimulated, substrate taken from Methods; EMSA: 10 mM Bis-Tris-propane-HCl pH 7.0, 10 mM MgCl2, 100 uM DTT, 20 nM DNA; 5% native PAGE, 0.5x TBE; binding temperature not stated; recombinant protein; residues 24-354; label: 5'-HEX on primer, 3'-biotin on template

TGTCGTCTGTTCGGTCGTTC / ACCGCGAACTTGAATTCTAGTTCAGTCTAAATGCTCTCAAGCACTGAGCAATTCACAACATATGGCTTTCGATTACCGAACGACCGAACAGACGACA [20/97-mer primer/template (HP-20 / ND-97)]
binding result: binds

The exact form of at least one protein or probe is not confirmed. At least one verdict rests on a figure or table, not on a statement of the authors. Where a protein sequence is shown, tags need not be part of it.
